# In the supplement of paper PMC8728848:
# This is one part of the list.
# What was measured:
# Test in all cases: glycan array binding signal (z-score within array); higher = stronger binding
# Details in all cases: glycan notation: IUPAC condensed, linker removed
# [1] = target: Gal(b1-4)GlcNAc(b1-2)Man(a1-3)[Gal(b1-4)GlcNAc(b1-2)Man(a1-6)]Man(b1-4)GlcNAc(b1-4)[Fuc(a1-6)]GlcNAc
# Summary of the method: (§1)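 Columns mapping to the same glycan were averaged after glycan names were converted to IUPAC-condensed notation. The data come from 3228 arrays in the Consortium for Functional Glycomics database, limited to those with an available protein sequence. Binding is reported as a within-array Z-score averaged across arrays of one protein sequence and across linkers.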
# [2] = target: Gal(b1-4)GlcNAc(b1-2)Man(a1-3)[Gal(b1-4)GlcNAc(b1-2)Man(a1-6)][Gal(b1-4)GlcNAc(b1-4)]Man(b1-4)GlcNAc(b1-4)[Fuc(a1-6)]GlcNAc
# Summary of the method: as §1
# [3] = target: Gal(b1-4)GlcNAc(b1-2)Man(a1-3)[Gal(b1-4)GlcNAc(b1-2)Man(a1-6)][GlcNAc(b1-4)]Man(b1-4)GlcNAc(b1-4)[Fuc(a1-6)]GlcNAc
# Summary of the method: as §1
# [4] = target: Gal(b1-4)GlcNAc(b1-2)Man(a1-3)[GlcNAc(b1-2)Man(a1-6)]Man(b1-4)GlcNAc(b1-4)GlcNAc
# Summary of the method: as §1
# [5] = target: Gal(b1-4)GlcNAc(b1-2)Man(a1-3)[GlcNAc(b1-4)][Gal(b1-4)GlcNAc(b1-2)Man(a1-6)]Man(b1-4)GlcNAc(b1-4)GlcNAc
# Summary of the method: as §1
# [6] = target: Gal(b1-4)GlcNAc(b1-2)Man(a1-3)[Man(a1-6)]Man(b1-4)GlcNAc(b1-4)GlcNAc
# Summary of the method: as §1
# [7] = target: Gal(b1-4)GlcNAc(b1-2)Man(a1-6)Man(b1-4)GlcNAc(b1-4)GlcNAc
# Summary of the method: as §1
# [8] = target: Gal(b1-4)GlcNAc(b1-2)Man(a1-6)[GlcNAc(b1-2)Man(a1-3)]Man(b1-4)GlcNAc(b1-4)GlcNAc
# Summary of the method: as §1
# [9] = target: Gal(b1-4)GlcNAc(b1-2)Man(a1-6)[Man(a1-3)]Man(b1-4)GlcNAc(b1-4)GlcNAc
# Summary of the method: as §1
# [10] = target: Gal(b1-4)GlcNAc(b1-2)[Gal(b1-4)GlcNAc(b1-4)]Man(a1-3)[Gal(b1-4)GlcNAc(b1-2)Man(a1-6)]Man(b1-4)GlcNAc(b1-4)GlcNAc
# Summary of the method: as §1
# [11] = target: Gal(b1-4)GlcNAc(b1-2)[Gal(b1-4)GlcNAc(b1-4)]Man(a1-3)[Gal(b1-4)GlcNAc(b1-2)[Gal(b1-4)GlcNAc(b1-6)]Man(a1-6)]Man(b1-4)GlcNAc(b1-4)GlcNAc
# Summary of the method: as §1
# [12] = target: Gal(b1-4)GlcNAc(b1-2)[Gal(b1-4)GlcNAc(b1-4)]Man(a1-3)[GlcNAc(b1-4)][Gal(b1-4)GlcNAc(b1-2)Man(a1-6)]Man(b1-4)GlcNAc(b1-4)GlcNAc
# Summary of the method: as §1
# [13] = target: Gal(b1-4)GlcNAc(b1-2)[Gal(b1-4)GlcNAc(b1-4)]Man(a1-3)[GlcNAc(b1-4)][Gal(b1-4)GlcNAc(b1-2)[Gal(b1-4)GlcNAc(b1-6)]Man(a1-6)]Man(b1-4)GlcNAc(b1-4)GlcNAc
# Summary of the method: as §1
# [14] = target: Gal(b1-4)GlcNAc(b1-2)[Gal(b1-4)GlcNAc(b1-6)]Man(a1-6)[Gal(b1-4)GlcNAc(b1-2)Man(a1-3)]Man(b1-4)GlcNAc(b1-4)GlcNAc
# Summary of the method: as §1
# [15] = target: Gal(b1-4)GlcNAc(b1-2)[Gal(b1-4)GlcNAc(b1-6)]Man(a1-6)[Gal(b1-4)GlcNAc(b1-2)Man(a1-3)]Man(b1-4)GlcNAc(b1-4)[Fuc(a1-6)]GlcNAc
# Summary of the method: as §1
# [16] = target: Gal(b1-4)GlcNAc(b1-2)[Gal(b1-4)GlcNAc(b1-6)]Man(a1-6)[GlcNAc(b1-4)][Gal(b1-4)GlcNAc(b1-2)Man(a1-3)]Man(b1-4)GlcNAc(b1-4)GlcNAc
# Summary of the method: as §1
# [17] = target: Gal(b1-4)GlcNAc(b1-2)[Gal(b1-4)GlcNAc(b1-6)]Man(a1-6)[GlcNAc(b1-4)][Gal(b1-4)GlcNAc(b1-2)[Gal(b1-4)GlcNAc(b1-4)]Man(a1-3)]Man(b1-4)GlcNAc(b1-4)[Fuc(a1-6)]GlcNAc
# Summary of the method: as §1
# [18] = target: Gal(b1-4)GlcNAc(b1-3)Gal(b1-3)GalNAc
# Summary of the method: as §1
# [19] = target: Gal(b1-4)GlcNAc(b1-3)Gal(b1-3)GlcNAc
# Summary of the method: as §1
# [20] = target: Gal(b1-4)GlcNAc(b1-3)Gal(b1-4)Glc
# Summary of the method: as §1
# [21] = target: Gal(b1-4)GlcNAc(b1-3)Gal(b1-4)GlcNAc
# Summary of the method: as §1
# [22] = target: Gal(b1-4)GlcNAc(b1-3)Gal(b1-4)GlcNAc(b1-2)Man(a1-3)[Gal(b1-4)GlcNAc(b1-3)Gal(b1-4)GlcNAc(b1-2)Man(a1-6)]Man(b1-4)GlcNAc(b1-4)GlcNAc
# Summary of the method: as §1
# [23] = target: Gal(b1-4)GlcNAc(b1-3)Gal(b1-4)GlcNAc(b1-2)Man(a1-3)[Gal(b1-4)GlcNAc(b1-3)Gal(b1-4)GlcNAc(b1-2)Man(a1-6)]Man(b1-4)GlcNAc(b1-4)[Fuc(a1-6)]GlcNAc
# Summary of the method: as §1
binder,measurement,setting,value
EULS2 M1 (Oryza sativa) (protein) MVYCRANPNYAMTARNGAVVLAPANPKDEYQHWIKDMRWSTSIKDEEGYPAFALVNKATGQAIKHSLGQSHPVRLVPYNPEVMDESVLWTESRDVGNGFRCIRMVNNIYLNFDAFHGDKYHGGVRDGTDIVLWKLCEGDNQRWKIQPYYILEQKLISEEDLNSAVDHHHHHH,glycan array binding signal (z-score),[1],-0.201
same,glycan array binding signal (z-score),[2],0.067
same,glycan array binding signal (z-score),[3],-0.719
same,glycan array binding signal (z-score),[4],0.521
same,glycan array binding signal (z-score),[5],1.31
same,glycan array binding signal (z-score),[6],0
same,glycan array binding signal (z-score),[7],-0.416
same,glycan array binding signal (z-score),[8],0.158
same,glycan array binding signal (z-score),[9],-0.073
same,glycan array binding signal (z-score),[10],-0.757
same,glycan array binding signal (z-score),[11],-0.584
same,glycan array binding signal (z-score),[12],0.188
same,glycan array binding signal (z-score),[13],-0.076
same,glycan array binding signal (z-score),[14],-0.141
same,glycan array binding signal (z-score),[15],-0.029
same,glycan array binding signal (z-score),[16],-0.54
same,glycan array binding signal (z-score),[17],-0.083
same,glycan array binding signal (z-score),[18],-1.06
same,glycan array binding signal (z-score),[19],-0.203
same,glycan array binding signal (z-score),[20],1.74
same,glycan array binding signal (z-score),[21],0.299
same,glycan array binding signal (z-score),[22],2.45
same,glycan array binding signal (z-score),[23],-0.039

# A different layout for some results above:
binder	measurement	setting	value
EULS2 M1 (Oryza sativa) (protein) MVYCRANPNYAMTARNGAVVLAPANPKDEYQHWIKDMRWSTSIKDEEGYPAFALVNKATGQAIKHSLGQSHPVRLVPYNPEVMDESVLWTESRDVGNGFRCIRMVNNIYLNFDAFHGDKYHGGVRDGTDIVLWKLCEGDNQRWKIQPYYILEQKLISEEDLNSAVDHHHHHH	glycan array binding signal (z-score)	[13]	-0.076
same	glycan array binding signal (z-score)	[14]	-0.141
